± gives the standard deviation of the averaged measurements. In all, about 1,600 compounds were measured (“normalized intracellular growth (luminescence, IQM-normalized) in RAW264.7 macrophages”: median about 1, lowest 2% from about 0.43 on). The list shows a part of the results.
Test system: Salmonella enterica serovar Typhimurium SL1344
Assay: normalized intracellular growth (luminescence, IQM-normalized) in RAW264.7 macrophages (fraction of plate interquartile mean); higher = more bacterial growth (less inhibition)
Conditions: 10 µM

Structure (SMILES) | normalized intracellular growth (time point: T3 (3 h)) | normalized intracellular growth (time point: Tfinal (~6 h))
COC1=C(OC)C(=O)C(CCCCCCCCCCO)=C(C)C1=O | 0.981 ± 0.1 | 1.14 ± 0.2
NCCCC[C@H](N[C@@H](CCc1ccccc1)C(=O)O)C(=O)N1CCC[C@H]1C(=O)O | 1 ± 0.011 | 1.06 ± 0.021
CC(C)(C)NC[C@H](O)COc1nsnc1N1CCOCC1 | 1.17 ± 0.12 | 1.23 ± 0.062
C[C@]12CCC(=O)C=C1CC[C@@H]1[C@@H]2[C@@H](O)C[C@@]2(C)[C@H]1CC[C@]2(O)C(=O)COC(=O)CCC(=O)O | 0.965 ± 0.051 | 0.869 ± 0.058
CO/N=C(\C(=O)N[C@@H]1C(=O)N2C(C(=O)O)=C(CSc3nc(=O)c(O)nn3C)CS[C@H]12)c1csc(N)n1 | 0.891 ± 0.022 | 0.311 ± 0.035
CO[C@@H]1[C@@H](OC(N)=O)[C@@H](O)[C@H](Oc2ccc3c(O)c(NC(=O)c4ccc(O)c(CC=C(C)C)c4)c(=O)oc3c2C)OC1(C)C | 0.98 ± 0.031 | 0.903 ± 0.17
CC(=O)Oc1cccc(O)c1 | 1.06 ± 0.083 | 0.868 ± 0.26
CCN1CCN(C(=O)N[C@@H](C(=O)N[C@@H]2C(=O)N3[C@@H]2SC(C)(C)[C@@H]3C(=O)O)c2ccccc2)C(=O)C1=O | 0.778 ± 0.051 | 0.906 ± 0.12
CN(C)CCC[C@@]1(c2ccc(F)cc2)OCc2cc(C#N)ccc21 | 1 ± 0.0023 | 0.875 ± 0.066
CC1=CC(=O)NS(=O)(=O)O1 | 1.06 ± 0.077 | 1.04 ± 0.089
O=C(CNC(=O)c1ccc(Cl)cc1)NO | 0.973 ± 0.089 | 1.03 ± 0.12
CN1CCCC(n2nc(Cc3ccc(Cl)cc3)c3ccccc3c2=O)CC1 (configuration not stated) | 0.945 ± 0.046 | 1.23 ± 0.032
CN1CCCCC1CCN1c2ccccc2Sc2ccc([S+](C)[O-])cc21 (configuration not stated) | 0.953 ± 0.033 | 1.1 ± 0.085
O=C(O[C@H]1CN2CCC1CC2)N1CCc2ccccc2[C@@H]1c1ccccc1 | 0.955 ± 0.098 | 1.11 ± 0.13
NC(=O)N/N=C/c1ccc([N+](=O)[O-])o1 | 1.2 ± 0.043 | 1.05 ± 0.047
N=C(N)NC(=N)N1CCOCC1 | 0.935 ± 0.033 | 1.11 ± 0.11
Cc1ncc(CSSCc2cnc(C)c(O)c2CO)c(CO)c1O | 0.943 ± 0.057 | 1.06 ± 0.015
CC(=O)Oc1cccc2c1C(=O)c1c(OC(C)=O)cc(C(=O)O)cc1C2=O | 0.967 ± 0.044 | 0.921 ± 0.11
C=C1C[C@H]2[C@@H]3C=C(C)C4=CC(=O)CC[C@]4(C)[C@H]3CC[C@]2(C)[C@@]1(OC(C)=O)C(C)=O | 0.96 ± 0.027 | 0.899 ± 0.057

Structure (SMILES) | normalized intracellular growth (time point: T3 (3 h)) | normalized intracellular growth (time point: Tfinal (~6 h))
N[C@H]1C(O)O[C@H](CO)[C@@H](O)[C@@H]1O (some centres not stated) | 0.967 ± 0.045 | 0.999 ± 0.058
OCCN1CCN(CCCN2c3ccccc3Sc3ccc(Cl)cc32)CC1 | 0.875 ± 0.13 | 0.88 ± 0.038
CN(C)CCc1c[nH]c2ccc(Cn3cncn3)cc12 | 1.01 ± 0.055 | 1.18 ± 0.16
Nc1ccc(S(=O)(=O)c2ccc(N)cc2)cc1 | 1.01 ± 0.04 | 0.866 ± 0.025
N=C(N)NCC1COC2(CCCCC2)O1 (configuration not stated) | 0.997 ± 0.04 | 1.02 ± 0.062
CC1(C)OC(=O)NC1=O | 0.974 ± 0.074 | 1.1 ± 0.072
Nc1ccc(C(=O)NCC(=O)O)cc1 | 0.983 ± 0.071 | 1 ± 0.011
COc1ccc(NS(=O)(=O)c2ccc(N)cc2)nn1 | 0.994 ± 0.058 | 1.01 ± 0.052
CCC[C@H](N[C@@H](C)C(=O)N1[C@H](C(=O)O)C[C@@H]2CCCC[C@@H]21)C(=O)OCC | 0.911 ± 0.034 | 1.24 ± 0.037
Cn1nnnc1SCC1=C(C(=O)O)N2C(=O)[C@@H](NC(=O)[C@H](O)c3ccccc3)[C@H]2SC1 | 1.08 ± 0.041 | 1.02 ± 0.17
O=C(CCCN1CC=C(n2c(=O)[nH]c3ccccc32)CC1)c1ccc(F)cc1 | 1.17 ± 0.055 | 1.18 ± 0.031
CCN(CC)CCNC(=O)c1cc(S(C)(=O)=O)ccc1OC | 1.08 ± 0.043 | 1.08 ± 0.087
Oc1c(I)cc(I)c2cccnc12 | 1.02 ± 0.046 | 0.913 ± 0.041
C#CCN(C)Cc1ccccc1 | 1.07 ± 0.045 | 1.01 ± 0.13
CCn1cc(C(=O)O)c(=O)c2ccc(C)nc21 | 0.994 ± 0.03 | 0.881 ± 0.37
C[C@H]1[C@@H](O)O[C@@H]2O[C@@]3(C)CC[C@H]4[C@H](C)CC[C@@H]1[C@@]24OO3 | 0.988 ± 0.069 | 0.686 ± 0.071
CCCCCC(C)N (configuration not stated) | 0.993 ± 0.077 | 0.979 ± 0.12
COc1ccc2cc(CCC(C)=O)ccc2c1 | 1.01 ± 0.033 | 1.11 ± 0.12
O=C(O)CCC(=O)OC[C@@H](NC(=O)C(Cl)Cl)[C@H](O)c1ccc([N+](=O)[O-])cc1 | 0.927 ± 0.048 | 0.178 ± 0.014

Structure (SMILES) | normalized intracellular growth (time point: T3 (3 h)) | normalized intracellular growth (time point: Tfinal (~6 h))
CC(=O)N[C@@H](CC(=O)N[C@@H](CCC(=O)O)C(=O)O)C(=O)O | 0.983 ± 0.061 | 0.998 ± 0.13
Cc1ccc(S(=O)(=O)NC(=O)NN2CC3CCCC3C2)cc1 (configuration not stated) | 0.969 ± 0.056 | 1.06 ± 0.012
CCn1cc(C(=O)O)c(=O)c2cnc(N3CCNCC3)nc21 | 0.974 ± 0.034 | 0.533 ± 0.082
COc1cc2nc(N3CCN(C(=O)c4ccco4)CC3)nc(N)c2cc1OC | 0.919 ± 0.12 | 0.917 ± 0.062
NCCS(=O)(=O)O | 0.941 ± 0.044 | 1.04 ± 0.13
C=CC[C@@H]1/C=C(\C)C[C@H](C)C[C@H](OC)[C@H]2O[C@@](O)(C(=O)C(=O)N3CCCC[C@H]3C(=O)O[C@H](/C(C)=C/[C@@H]3CC[C@@H](O)[C@H](OC)C3)[C@H](C)[C@@H](O)CC1=O)[C@H](C)C[C@@H]2OC | 0.931 ± 0.044 | 0.915 ± 0.27
NC[C@H]1O[C@H](O[C@H]2[C@H](O[C@@H]3O[C@H](CO)[C@@H](O)[C@H]3O)[C@@H](O)[C@H](N)C[C@@H]2N)[C@H](N)[C@@H](O)[C@@H]1O | 1 ± 0.076 | 1.11 ± 0.17
CCN(Cc1ccncc1)C(=O)C(CO)c1ccccc1 (configuration not stated) | 0.97 ± 0.059 | 1.03 ± 0.12
OC(CCN1CCCCC1)(c1ccccc1)C1CC2C=CC1C2 (configuration not stated) | 1.09 ± 0.043 | 0.844 ± 0.14
CCN(CC)CC#CCOC(=O)C(O)(c1ccccc1)C1CCCCC1 (configuration not stated) | 1.09 ± 0.034 | 1.13 ± 0.044
CN1C2CCCC1CC(NC(=O)c1nn(C)c3ccccc13)C2 (configuration not stated) | 1.14 ± 0.036 | 0.935 ± 0.11
CC(C)N1CCN(c2ccc(OCC3COC(Cn4cncn4)(c4ccc(Cl)cc4Cl)O3)cc2)CC1 (configuration not stated) | 1.02 ± 0.043 | 1.13 ± 0.095
CCCCC(=O)O[C@]1(C(=O)CO)CC[C@H]2[C@@H]3CCC4=CC(=O)CC[C@]4(C)[C@H]3[C@@H](O)C[C@@]21C | 1.09 ± 0.043 | 1.11 ± 0.039
Cc1noc(NS(=O)(=O)c2ccc(N)cc2)c1C | 1.13 ± 0.019 | 1.11 ± 0.033
CCc1cccc2c3c([nH]c12)C(CC)(CC(=O)O)OCC3 (configuration not stated) | 0.97 ± 0.043 | 0.968 ± 0.028
CC1=C(CC(=O)O)c2cc(F)ccc2/C1=C\c1ccc([S+](C)[O-])cc1 (configuration not stated) | 1.05 ± 0.11 | 1.05 ± 0.07
CC(Oc1c(Cl)cccc1Cl)C1=NCCN1 (configuration not stated) | 1.01 ± 0.057 | 1.01 ± 0.069
CO/N=C(\C(=O)N[C@@H]1C(=O)N2C(C(=O)O)=C(C[N+]3(C)CCCC3)CS[C@H]12)c1csc(N)n1 | 1.01 ± 0.054 | 0.0358 ± 0.0021

Exported as a markdown table: part of the list above.

| Structure (SMILES) | normalized intracellular growth (time point: T3 (3 h)) | normalized intracellular growth (time point: Tfinal (~6 h)) |
| --- | --- | --- |
| CO[C@@H]1[C@@H](OC(N)=O)[C@@H](O)[C@H](Oc2ccc3c(O)c(NC(=O)c4ccc(O)c(CC=C(C)C)c4)c(=O)oc3c2C)OC1(C)C | 0.98 ± 0.031 | 0.903 ± 0.17 |
| CC(=O)Oc1cccc(O)c1 | 1.06 ± 0.083 | 0.868 ± 0.26 |
| CCN1CCN(C(=O)N[C@@H](C(=O)N[C@@H]2C(=O)N3[C@@H]2SC(C)(C)[C@@H]3C(=O)O)c2ccccc2)C(=O)C1=O | 0.778 ± 0.051 | 0.906 ± 0.12 |
| CN(C)CCC[C@@]1(c2ccc(F)cc2)OCc2cc(C#N)ccc21 | 1 ± 0.0023 | 0.875 ± 0.066 |
| CC1=CC(=O)NS(=O)(=O)O1 | 1.06 ± 0.077 | 1.04 ± 0.089 |
| O=C(CNC(=O)c1ccc(Cl)cc1)NO | 0.973 ± 0.089 | 1.03 ± 0.12 |
| CN1CCCC(n2nc(Cc3ccc(Cl)cc3)c3ccccc3c2=O)CC1 (configuration not stated) | 0.945 ± 0.046 | 1.23 ± 0.032 |
| CN1CCCCC1CCN1c2ccccc2Sc2ccc([S+](C)[O-])cc21 (configuration not stated) | 0.953 ± 0.033 | 1.1 ± 0.085 |
| O=C(O[C@H]1CN2CCC1CC2)N1CCc2ccccc2[C@@H]1c1ccccc1 | 0.955 ± 0.098 | 1.11 ± 0.13 |
| NC(=O)N/N=C/c1ccc([N+](=O)[O-])o1 | 1.2 ± 0.043 | 1.05 ± 0.047 |
| N=C(N)NC(=N)N1CCOCC1 | 0.935 ± 0.033 | 1.11 ± 0.11 |
| Cc1ncc(CSSCc2cnc(C)c(O)c2CO)c(CO)c1O | 0.943 ± 0.057 | 1.06 ± 0.015 |
| CC(=O)Oc1cccc2c1C(=O)c1c(OC(C)=O)cc(C(=O)O)cc1C2=O | 0.967 ± 0.044 | 0.921 ± 0.11 |
| C=C1C[C@H]2[C@@H]3C=C(C)C4=CC(=O)CC[C@]4(C)[C@H]3CC[C@]2(C)[C@@]1(OC(C)=O)C(C)=O | 0.96 ± 0.027 | 0.899 ± 0.057 |
| N[C@H]1C(O)O[C@H](CO)[C@@H](O)[C@@H]1O (some centres not stated) | 0.967 ± 0.045 | 0.999 ± 0.058 |
| OCCN1CCN(CCCN2c3ccccc3Sc3ccc(Cl)cc32)CC1 | 0.875 ± 0.13 | 0.88 ± 0.038 |
| CN(C)CCc1c[nH]c2ccc(Cn3cncn3)cc12 | 1.01 ± 0.055 | 1.18 ± 0.16 |

Reference: the supplement of paper PMC6331611
